# The other results are listed elsewhere or left out.
# Key:
# Assay in all cases: glycan array binding signal (z-score within array); higher = stronger binding
# Conditions in all cases: glycan notation: IUPAC condensed, linker removed
# [1] = molecular target: Fuc(a1-2)Gal
# Summary of the method: (§1)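 The Consortium for Functional Glycomics database supplied 3228 glycan arrays, of which those lacking an available protein sequence were dropped. The binding signal, a within-array Z-score, was averaged across arrays of the same protein sequence and across linkers. Negative scores can be read as non-binding.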
# [2] = molecular target: Fuc(a1-2)Gal(b1-3)GalNAc
# Summary of the method: as §1
# [3] = molecular target: Fuc(a1-2)Gal(b1-3)GalNAc(a1-3)[Fuc(a1-2)]Gal(b1-4)Glc
# Summary of the method: as §1
# [4] = molecular target: Fuc(a1-2)Gal(b1-3)GalNAc(a1-3)[Fuc(a1-2)]Gal(b1-4)GlcNAc
# Summary of the method: as §1
# [5] = molecular target: Fuc(a1-2)Gal(b1-3)GalNAc(b1-3)Gal
# Summary of the method: as §1
# [6] = molecular target: Fuc(a1-2)Gal(b1-3)GalNAc(b1-3)Gal(a1-4)Gal(b1-4)Glc
# Summary of the method: as §1
# [7] = molecular target: Fuc(a1-2)Gal(b1-3)GalNAc(b1-4)[Neu5Ac(a2-3)]Gal(b1-4)Glc
# Summary of the method: as §1
# [8] = molecular target: Fuc(a1-2)Gal(b1-3)GlcNAc
# Summary of the method: as §1
# [9] = molecular target: Fuc(a1-2)Gal(b1-3)GlcNAc(b1-2)Man(a1-3)[Fuc(a1-2)Gal(b1-3)GlcNAc(b1-2)Man(a1-6)]Man(b1-4)GlcNAc(b1-4)GlcNAc
# Summary of the method: as §1
# [10] = molecular target: Fuc(a1-2)Gal(b1-3)GlcNAc(b1-2)Man(a1-3)[Fuc(a1-2)Gal(b1-3)GlcNAc(b1-2)Man(a1-6)]Man(b1-4)GlcNAc(b1-4)[Fuc(a1-6)]GlcNAc
# Summary of the method: as §1
# [11] = molecular target: Fuc(a1-2)Gal(b1-3)GlcNAc(b1-3)Gal(b1-4)Glc
# Summary of the method: as §1
# [12] = molecular target: Fuc(a1-2)Gal(b1-3)GlcNAc(b1-3)GalNAc
# Summary of the method: as §1
# [13] = molecular target: Fuc(a1-2)Gal(b1-3)GlcNAc(b1-3)[Fuc(a1-2)Gal(b1-3)GlcNAc(b1-6)]GalNAc
# Summary of the method: as §1
# [14] = molecular target: Fuc(a1-2)Gal(b1-3)GlcNAc(b1-3)[Gal(b1-4)GlcNAc(b1-6)]Gal(b1-4)Glc
# Summary of the method: as §1
# [15] = molecular target: Fuc(a1-2)Gal(b1-3)GlcNAc(b1-3)[Neu5Ac(a2-6)Gal(b1-4)GlcNAc(b1-6)]Gal(b1-4)Glc
# Summary of the method: as §1
# [16] = molecular target: Fuc(a1-2)Gal(b1-3)GlcNAc6S
# Summary of the method: as §1
# [17] = molecular target: Fuc(a1-2)Gal(b1-3)[Fuc(a1-4)]GlcNAc
# Summary of the method: as §1
# [18] = molecular target: Fuc(a1-2)Gal(b1-3)[Fuc(a1-4)]GlcNAc(b1-2)Man(a1-3)[Fuc(a1-2)Gal(b1-3)[Fuc(a1-4)]GlcNAc(b1-2)Man(a1-3)]Man(b1-4)GlcNAc(b1-4)GlcNAc
# Summary of the method: as §1
# [19] = molecular target: Fuc(a1-2)Gal(b1-3)[Fuc(a1-4)]GlcNAc(b1-2)Man(a1-3)[Fuc(a1-2)Gal(b1-3)[Fuc(a1-4)]GlcNAc(b1-2)Man(a1-6)]Man(b1-4)GlcNAc(b1-4)[Fuc(a1-6)]GlcNAc(b1-4)[Fuc(a1-6)]GlcNAc
# Summary of the method: as §1
# [20] = molecular target: Fuc(a1-2)Gal(b1-3)[Fuc(a1-4)]GlcNAc(b1-3)[Fuc(a1-3)[Gal(b1-4)]GlcNAc(b1-6)]Gal(b1-4)Glc
# Summary of the method: as §1
# [21] = molecular target: Fuc(a1-2)Gal(b1-3)[Fuc(a1-4)]GlcNAc(b1-3)[Gal(b1-4)GlcNAc(b1-6)]Gal(b1-4)Glc
# Summary of the method: as §1
# [22] = molecular target: Fuc(a1-2)Gal(b1-4)Glc
# Summary of the method: as §1
# [23] = molecular target: Fuc(a1-2)Gal(b1-4)Glc6S
# Summary of the method: as §1
# [24] = molecular target: Fuc(a1-2)Gal(b1-4)GlcNAc
# Summary of the method: as §1
# [25] = molecular target: Fuc(a1-2)Gal(b1-4)GlcNAc(b1-2)Man
# Summary of the method: as §1
# [26] = molecular target: Fuc(a1-2)Gal(b1-4)GlcNAc(b1-2)Man(a1-3)[Fuc(a1-2)Gal(b1-4)GlcNAc(b1-2)Man(a1-6)]Man(b1-4)GlcNAc(b1-4)GlcNAc
# Summary of the method: as §1
# [27] = molecular target: Fuc(a1-2)Gal(b1-4)GlcNAc(b1-2)Man(a1-3)[Fuc(a1-2)Gal(b1-4)GlcNAc(b1-2)Man(a1-6)]Man(b1-4)GlcNAc(b1-4)[Fuc(a1-6)]GlcNAc
# Summary of the method: as §1
# [28] = molecular target: Fuc(a1-2)Gal(b1-4)GlcNAc(b1-2)[Fuc(a1-2)Gal(b1-4)GlcNAc(b1-4)]Man(a1-3)[Fuc(a1-2)Gal(b1-4)GlcNAc(b1-2)Man(a1-6)]Man(b1-4)GlcNAc(b1-4)GlcNAc
# Summary of the method: as §1
# [29] = molecular target: Fuc(a1-2)Gal(b1-4)GlcNAc(b1-3)Gal(b1-4)GlcNAc
# Summary of the method: as §1
# [30] = molecular target: Fuc(a1-2)Gal(b1-4)GlcNAc(b1-3)Gal(b1-4)GlcNAc(b1-2)Man(a1-3)[Fuc(a1-2)Gal(b1-4)GlcNAc(b1-3)Gal(b1-4)GlcNAc(b1-2)Man(a1-6)]Man(b1-4)GlcNAc(b1-4)GlcNAc
# Summary of the method: as §1
binder,measurement,setting,value
"Thrombomodulin Extracellular (Mus musculus), P15306 (protein) MLGIFFLGVLAPASLGLSALAKLQPTGSQCVEHECFALFQGPATFLDASQACQRLQGHLMTVRSSVAADVISLLLSQSSMDLGPWIGLQLPQGCDDPVHLGPLRGFQWVTGDNHTSYSRWARPNDQTAPLCGPLCVTVSTATEAAPGEPAWEEKPCETETQGFLCEFYFTASCRPLTVNTRDPEAAHISSTYNTPFGVSGADFQTLPVGSSAAVEPLGLELVCRAPPGTSEGHWAWEATGAWNCSVENGGCEYLCNRSTNEPRCLCPRDMDLQADGRSCARPVVQSCNELCEHFCVSNAEVPGSYSCMCETGYQLAADGHRCEDVDDCKQGPNPCPQLCVNTKGGFECFCYDGYELVDGECVELLDPCFGSNCEFQCQPVSPTDYRCICAPGFAPKPDEPHKCEMFCNETSCPADCDPNSPTVCECPEGFILDEGSVCTDIDECSQGECFTSECRNFPGSYECICGPDTALAGQISKDCDPIPVREDTKEEEGSGEPPVSPTPGSPTGPPSARPVHSGVLIGISIASLSLVVALLALLCHLRKKQGAARAELEYKCASSAKEVVLQHVRTDRTLQKF",glycan array binding signal (z-score),[1],0.249
same,glycan array binding signal (z-score),[2],-0.717
same,glycan array binding signal (z-score),[3],0.599
same,glycan array binding signal (z-score),[4],0.681
same,glycan array binding signal (z-score),[5],-0.899
same,glycan array binding signal (z-score),[6],0.433
same,glycan array binding signal (z-score),[7],-0.952
same,glycan array binding signal (z-score),[8],-0.798
same,glycan array binding signal (z-score),[9],2.48
same,glycan array binding signal (z-score),[10],0.563
same,glycan array binding signal (z-score),[11],-0.964
same,glycan array binding signal (z-score),[12],0.214
same,glycan array binding signal (z-score),[13],-0.749
same,glycan array binding signal (z-score),[14],-0.09
same,glycan array binding signal (z-score),[15],-0.306
same,glycan array binding signal (z-score),[16],-1.7
same,glycan array binding signal (z-score),[17],1.09
same,glycan array binding signal (z-score),[18],-0.026
same,glycan array binding signal (z-score),[19],0.537
same,glycan array binding signal (z-score),[20],2.24
same,glycan array binding signal (z-score),[21],0.702
same,glycan array binding signal (z-score),[22],1.97
same,glycan array binding signal (z-score),[23],1.37
same,glycan array binding signal (z-score),[24],-0.429
same,glycan array binding signal (z-score),[25],-0.956
same,glycan array binding signal (z-score),[26],1.3
same,glycan array binding signal (z-score),[27],1.12
same,glycan array binding signal (z-score),[28],0.491
same,glycan array binding signal (z-score),[29],0.406
same,glycan array binding signal (z-score),[30],-0.535

# Given with bars between the fields: part of the list above
binder | measurement | setting | value
Thrombomodulin Extracellular (Mus musculus), P15306 (protein) MLGIFFLGVLAPASLGLSALAKLQPTGSQCVEHECFALFQGPATFLDASQACQRLQGHLMTVRSSVAADVISLLLSQSSMDLGPWIGLQLPQGCDDPVHLGPLRGFQWVTGDNHTSYSRWARPNDQTAPLCGPLCVTVSTATEAAPGEPAWEEKPCETETQGFLCEFYFTASCRPLTVNTRDPEAAHISSTYNTPFGVSGADFQTLPVGSSAAVEPLGLELVCRAPPGTSEGHWAWEATGAWNCSVENGGCEYLCNRSTNEPRCLCPRDMDLQADGRSCARPVVQSCNELCEHFCVSNAEVPGSYSCMCETGYQLAADGHRCEDVDDCKQGPNPCPQLCVNTKGGFECFCYDGYELVDGECVELLDPCFGSNCEFQCQPVSPTDYRCICAPGFAPKPDEPHKCEMFCNETSCPADCDPNSPTVCECPEGFILDEGSVCTDIDECSQGECFTSECRNFPGSYECICGPDTALAGQISKDCDPIPVREDTKEEEGSGEPPVSPTPGSPTGPPSARPVHSGVLIGISIASLSLVVALLALLCHLRKKQGAARAELEYKCASSAKEVVLQHVRTDRTLQKF | glycan array binding signal (z-score) | [1] | 0.249
same | glycan array binding signal (z-score) | [20] | 2.24

# From the supplement of paper PMC8728848
